Values from PubChem BioAssay AID493246 (Drosophila RNAi Screening Center, 2011).
Test: 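Genes fly cells need to grow and stay alive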 (primary screen). Cell system: Drosophila Kc and S2R+ cells. Reagent: long dsRNA against Drosophila genes. Read-out: 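Raw, unnormalised count of remaining cells in each well; per-plate z-scores of cell number underlie the calls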. Direction: Kc cell number and S2R+ cell number: higher = more cells remaining. Hit rule: 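Active when the per-plate z-score of cell number is 3 or more in the direction of fewer cells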.
The screen tested about 21,000 reagents; shown is a random part of those that have a named target and a result. Of all reagents, 429 (2%) were called active. 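Values are raw and not normalised between plates; calls rest on per-plate z-scores that were not deposited.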 Entries without a mark were called inactive. Reagents against one gene are numbered here. A plus sign joins genes that one reagent is predicted to hit. Not given: the amount of reagent, the time to read-out.

no.	target gene	dsRNA no.	Kc cell number, rep 1	Kc cell number, rep 2	S2R+ cell number, rep 1	S2R+ cell number, rep 2
1	GABA-B-R2	1	1.56e6	1.54e6	1.18e6	1.25e6
2	Elp2	1	1.55e6	1.60e6	1.23e6	1.23e6
3	CG42514	1	1.58e6	1.70e6	1.17e6	1.30e6
4	CG12499	1	1.49e6	1.53e6	8.00e5	8.76e5
5	CG7497	1	1.75e6	1.82e6	1.41e6	1.47e6
6	CG12516	1	1.50e6	1.47e6	9.70e5	1.16e6
7	Spn43Aa	1	1.53e6	1.55e6	1.12e6	1.18e6
8	CG31688 + CG31687	1	1.55e6	1.55e6	1.07e6	3.43e5
9	CG11893	1	1.48e6	1.60e6	1.09e6	1.17e6
10	CG13858 (retired record)	1	1.30e6	1.21e6	1.12e6	1.27e6
11	CG13858 (retired record)	2	1.25e6	1.18e6	1.06e6	1.22e6
12	CG13858 (retired record)	3	1.22e6	1.20e6	1.12e6	1.19e6
13	CG13858 (retired record)	4	1.23e6	1.20e6	1.09e6	1.17e6
14	CG32726	1	1.18e6	1.42e6	1.06e6	1.09e6
15	CG8112	1	1.65e6	2.02e6	1.24e6	1.39e6
16	eIF3g2	1	1.33e6	1.31e6	9.71e5	9.86e5
17	CG32219	1	1.32e6	1.55e6	1.08e6	1.31e6
18	por	1	1.61e6	1.64e6	1.18e6	1.30e6
19	hng3	1	1.22e6	1.34e6	1.14e6	1.30e6
20	Rubicon	1	1.57e6	1.55e6	1.08e6	1.24e6
21	CG42537	1	1.51e6	1.65e6	1.31e6	1.46e6
22	CG9691	1	1.56e6	1.53e6	9.78e5	1.13e6
23	MYPT-75D	1	1.47e6	1.52e6	1.35e6	1.38e6
24	Pgant1	1	1.75e6	1.73e6	1.32e6	1.54e6
25	Lamtor3	1	1.75e6	1.84e6	1.25e6	1.40e6
26	CG5746	1	1.44e6	1.54e6	1.14e6	1.20e6
27	CG42591	1	1.43e6	1.42e6	1.13e6	1.25e6
28	kumpel	1	1.45e6	1.55e6	1.02e6	1.10e6
29	kumpel	2	1.54e6	1.70e6	1.04e6	1.11e6
30	kumpel	3	1.52e6	1.73e6	1.05e6	1.14e6
31	kumpel	4	1.80e6	1.70e6	1.03e6	1.13e6
32	kumpel	5	1.67e6	1.63e6	1.00e6	1.17e6
33	kumpel	6	1.50e6	1.53e6	1.01e6	1.13e6
34	Pbp45	1	1.49e6	1.56e6	1.23e6	1.29e6
35	Bub1	1	1.18e6	1.30e6	3.97e5	6.65e5
36	CG8079	1	1.38e6	1.49e6	1.00e6	1.03e6
37	CG8079	2	1.56e6	1.58e6	1.24e6	1.36e6
38	Ir56a	1	6.02e5		9.26e5	
39	CG5225	1	1.38e6	1.54e6	1.04e6	1.17e6
40	Xpd	1	1.56e6	1.61e6	1.17e6	1.25e6
41	CG15535	1	1.44e6	1.49e6	1.01e6	1.09e6
42	CG1628	1	5.92e5		8.45e5	
43	CG12523	1	1.52e6	1.48e6	1.02e6	1.14e6
44	CG15353	1	1.33e6	1.30e6	1.02e6	1.14e6
45	CG3592	1	1.47e6	1.46e6	1.02e6	1.13e6
46	CG2898	1	1.62e6	1.59e6	1.05e6	1.14e6
47	PlexB	1	1.58e6	1.59e6	1.03e6	1.17e6
48	Sry-alpha	1	1.45e6	1.42e6	1.05e6	1.23e6
49	CG9098	1	1.55e6	1.58e6	1.03e6	1.14e6
50	Fbxo42	1	1.40e6	1.46e6	1.08e6	1.09e6
51	CG31213	1	1.35e6	1.40e6	1.04e6	1.08e6
52	CG31213	2	1.36e6	1.41e6	9.97e5	8.33e5
53	Prim1	1	1.49e6	1.42e6	1.07e6	1.12e6
54	CG43672	1	1.49e6	1.50e6	1.07e6	1.14e6
55	CG43672	2	1.38e6	1.40e6	1.03e6	1.12e6
56	tyf	1	1.48e6	1.44e6	1.04e6	1.14e6
57	Rab6	1	1.34e6	1.39e6	1.13e6	1.20e6
58	Snx17	1	1.44e6	1.45e6	1.18e6	1.27e6
59	Tfb4	1	1.47e6	1.50e6	9.36e5	1.14e6

A few values from above.
For “S2R+ cell number, rep 1”, Bub1 reads 3.97e5
tyf, S2R+ cell number, rep 1: 1.04e6
Under “Kc cell number, rep 1”, CG12516 is entered as 1.50e6
